Nine molecules from patent publication US20160009800A1 can be followed below.

By UniProt entry, the sequences of proteins in these tests, tags left out. Where a name states a change or a piece, a line headed by the entry shows the natural chain unless it says otherwise.
UniProt P06213: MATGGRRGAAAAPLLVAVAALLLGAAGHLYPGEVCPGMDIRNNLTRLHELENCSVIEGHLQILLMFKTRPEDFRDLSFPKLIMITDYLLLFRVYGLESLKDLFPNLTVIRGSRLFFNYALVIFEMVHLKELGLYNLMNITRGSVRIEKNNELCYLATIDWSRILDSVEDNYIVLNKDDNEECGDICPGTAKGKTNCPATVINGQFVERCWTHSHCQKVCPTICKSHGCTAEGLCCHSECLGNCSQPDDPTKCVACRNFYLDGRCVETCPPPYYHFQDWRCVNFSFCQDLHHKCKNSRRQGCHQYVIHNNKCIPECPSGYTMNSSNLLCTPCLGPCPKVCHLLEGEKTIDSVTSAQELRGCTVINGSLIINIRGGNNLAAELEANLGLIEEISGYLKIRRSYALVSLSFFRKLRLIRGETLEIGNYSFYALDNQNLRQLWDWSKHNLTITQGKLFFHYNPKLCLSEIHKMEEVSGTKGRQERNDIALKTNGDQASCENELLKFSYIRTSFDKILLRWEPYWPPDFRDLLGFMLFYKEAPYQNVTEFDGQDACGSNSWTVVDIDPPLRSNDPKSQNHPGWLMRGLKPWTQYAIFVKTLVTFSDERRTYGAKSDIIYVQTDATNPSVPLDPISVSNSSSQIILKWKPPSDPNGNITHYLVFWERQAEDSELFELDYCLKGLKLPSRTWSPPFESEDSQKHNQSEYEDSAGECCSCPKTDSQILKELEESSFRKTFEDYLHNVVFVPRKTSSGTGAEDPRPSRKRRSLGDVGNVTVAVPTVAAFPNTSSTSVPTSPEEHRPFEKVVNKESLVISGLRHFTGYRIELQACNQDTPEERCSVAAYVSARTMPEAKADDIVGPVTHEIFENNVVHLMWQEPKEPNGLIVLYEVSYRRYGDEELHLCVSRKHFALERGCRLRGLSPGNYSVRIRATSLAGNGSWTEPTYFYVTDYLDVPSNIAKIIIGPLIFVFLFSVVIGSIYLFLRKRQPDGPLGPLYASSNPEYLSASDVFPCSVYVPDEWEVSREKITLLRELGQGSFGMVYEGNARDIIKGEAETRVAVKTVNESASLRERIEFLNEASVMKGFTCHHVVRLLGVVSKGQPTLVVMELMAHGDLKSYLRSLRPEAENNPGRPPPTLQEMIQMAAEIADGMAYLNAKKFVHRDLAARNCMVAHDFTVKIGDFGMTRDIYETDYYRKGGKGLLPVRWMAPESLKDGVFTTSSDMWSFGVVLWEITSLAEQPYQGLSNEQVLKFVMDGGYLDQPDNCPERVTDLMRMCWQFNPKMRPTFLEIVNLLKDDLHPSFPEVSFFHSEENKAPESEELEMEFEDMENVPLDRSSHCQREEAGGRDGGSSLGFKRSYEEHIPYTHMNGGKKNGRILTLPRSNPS

Test [1] concerns the target human insulin receptor (human) (UniProt P06213). The experiment in a line: flow cytometry, biotinylated IgG on hINSR8-CHOK1 cells.
Test [2] shares this target. The test can be described thus: KinExA antibody depletion by hINSR8-CHOK1 cells.
Test [3] addresses cynomolgus monkey insulin receptor (cynomolgus monkey). The experiment in a line: FACS on CHO cells expressing cynomolgus insulin receptor, without insulin.
In test [4] the target is human insulin receptor (human) (UniProt P06213). The experiment in a line: FACS on CHO cells expressing human insulin receptor, without insulin.
For test [5], the target named is cynomolgus monkey insulin receptor (cynomolgus monkey). The test can be described thus: FACS on monocytes of cynomolgus PBMC and on CHO cells expressing cynomolgus insulin receptor, without insulin.
The target in test [6] is human insulin receptor (human) (UniProt P06213). The experiment in a line: FACS on monocytes of human PBMC and on CHO cells expressing human insulin receptor, without insulin.
Test [7] has the same target. The test can be described thus: FACS on monocytes of human PBMC, without insulin.

No constants are given. Whether binding was seen depends on the method and setting. A result given as binding can be weak or reduced; the word gives no strength.

B1: Ab019 (antibody, V domains shown)
VH: QVQLQQSEAELVKPGASVKISCKASGYTFSNYWMNWVKQRPGKGLEWIGQIYPGDGDTNYNGKFKGKATLIADKSSSTAYMQLSSLTSEDSAVYFCARGVSGYGAMDYWGQGTSVTVSS
VL: DLVLTQSPASLAVSLGQRATISCRASKSVSTSGYSYIHWYQQKPGQPPKLLIYLASNLESGVPARFSGSGSGTDFTLNIHPVEEEDAATYYCQHNREPRTFGGGTNLEIKR
Consider B1, for which the binding result in test [1] is “binds”.

B2: Ab089 (antibody, V domains shown)
VH: QVQLQQSEAELVKPGASVKISCKASGYTFSSYWMNWVKQRPGKGLEWIGQIYPGDGDTNYNVKFKGKATLTADKSSGTAYMQLSSLTSEDSAVYFCARGVSGYGAMDYWGQGTSVTVSS
VL: DLVLTQSPASLAVSLGQRATISCRASKSVSTSGYSYIHWYQQKPGQPPKLLIYLASNLESGVPARFSGSGSGTDFTLNIHPVEEEDAATYYCQHNRELRTFGGGTKLEIKR
Turning to B2, the binding result in test [1] is “binds”.

B3: Ab020 (antibody, V domains shown)
VH: QVQLQQSEAELVKPGASVKISCKASGYTFSSYWMNWVKQRPGKGLEWIGQIYPGDGDTNYNVKFKGKATLTADKSSGTAYMQLSSLTSEDSAVYFCARGVSGYGAMDYWGQGTSVTVSS
VL: DLVLTQSPASLAVSLGQRATISCRASKSVSTSGYSYIHWYQQKPGQPPKLLIYLASNLESGVPARFSGSGSGTDFTLNIHPVEEEDAATYYCQHNRELRTFGGGTKLEIKR
On to B3, for which the binding result in test [1] is “binds”.

B4: Ab088 (antibody, V domains shown)
VH: QVQLQQSEAELVKPGASVKISCKASGYTFSSYWMSWVKQRPGKGLEWIGQIYPGDGDTNYNGKFKGKATLTADKSSGTAYMQLSSLTSEDSAVYFCARGVSGYGAMDYWGQGTSVTVSS
VL: DLVLTQSPASLAVSLGQRATISCRASKSVTTSGYSYIHWYQQKPGQPPKLLIYLASNLESGAPARFSGSGSGTDFTLNIHPVEEEDAGNYYCQHNREPRTFGGGTKLEIKR
For the molecule B4, the binding result in test [1] is listed as “binds”.

B5: Ab062 (antibody, IgG2, V domains shown)
VH: QVQLQQWGAGLLKPSETLSLTCAVYGGSFSGYYWSWIRQPPGKGLEWIGEINHSGSTNYNPSLKSRVTISVDTSKNQFSLKLSSVTAADTAVYYCARGPSGWYIREFDYWGQGTLVTVSS
VL: QSVLTQPPSVSGAPGQRVTISCTGSSSNIGAGYDVHWYQQLPGTAPKLLIYGNSNRPSGVPDRFSGSKSGTSASLAITGLQAEDEADYYCQSYDSSLSGSGVFGGGTKVTVL
Take B5: the binding result in test [2], in test [3], in test [4] and in test [1] was “binds” each time.

B6: Ab037 (antibody, V domains shown)
VH: EVQLLESGGGLVQPGGSLRLSCAASGFTFSSYEMNWVRQAPGKGLEWVSSISSSSRYADVANSVVGRFTISRDNSKNTLYLQMNSLRAEDTAVYYCARGEWLDHFDYWGQGTLVTVSS
VL: QSVLTQPPSASGTPGQRVTISCSGSSSNIGNSAVNWYQQLPGTAPKLLIYDNNKRPSGVPDRFSGSKSGTSASLAISGLRSEDEADYYCQVWDSGTAVFGGGTKLTVLG
As to B6, the binding result in test [5], in test [2], in test [6] and in test [1] was “binds” throughout.

B7: Ab086 (antibody, IgG2, V domains shown)
VH: EVQLVETGGGVVRPGGSLRLSCAASGFTFGDYGMSWVRQAPGKGLEWVSGINWNGGSTGYADSVKGRFTISRDNAKNSLYLQMNSLRAEDTALYYCARDILGVEFDYWGQGTLVTVSS
VL: QSALTQPASVSGSLGQSITISCTGTSSDIGLYKFVSWYQQHPGKAPKLMIYDVSYRPSGVSNRFSGSSSGNTASLTISGLQAEDEADYYCNSYTSSSTLVVFGGGTKLTVL
Take B7: in test [1], the binding result is “binds”.

B8: Ab010 (antibody, V domains shown)
VH: EVQLQQSGPVLVKPGASVKMSCKAAGYTFTDSYMNWVKQSHGKSLEWIGDINPYNGGTSYNQHFKGKATLTVDKSSSTAYMELNSLTSEDSAVYYCARRRGAMDYWGQGTSVTVSS
VL: DVQIIQSPSYLAASPGETITINCRASKSISKYLAWYQEKPGKTNKLLIYSGSTLQSGIPSRFSGSGSGTDFTLTISSLEPEDFAMYYCQQHNEYPLTFGAGTKLELKR
For B8, in test [7], the binding entry is listed as “binds”.

B9: Ab087 (antibody, V domains shown)
VH: EVQLVESGGGLVKPGGSLKLSCAASGFTFSNYAMSWVRQTPEKRLEWVATISDGGHYIDYPDNVKGRFTISRDNAKNNLYLQMSHLRSEDSAMYYCARATNFAYWGQGTLVTVSA
VL: DIQMTQSPSSLSASLGGKVTITCKASQHINKYIAWYQHKPGKGPRLLIHYTSTLQPGIPSRFSGSGSGRDYSFSISNLEPEDIATYYCLQYDNLYTFGGGTKLEIKR
In the case of B9, the binding entry in test [1] was “binds”.
